{"source": "PubChem BioAssay AID1671195 (Yale University, 2021)", "screen": "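Genes whose knockdown alters LDL uptake in liver cancer cells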 (primary screen)", "system": "human Huh7 hepatoma cells", "reagent": "siRNA pool against human genes, 18 nM", "duration": "about 2 to 2.5 days of knockdown, then 8 h LDL uptake", "conditions": "DiI-labelled LDL at 30 µg/ml for 8 h, in lipoprotein-deficient serum medium", "measurement": "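Per-cell DiI-LDL intensity by automated imaging; well means scaled to the plate median and given as a robust z-score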", "reading the numbers": "robust z-score: higher = more LDL uptake after knockdown", "call rule": "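Active when two or more replicates show a robust z-score above 2 or below -2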", "note": "Shown is an unselected part of about 22,000 deposited reagents. Over the whole deposit, about 1,510 (6.9%) are marked active. 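Active includes knockdowns raising or lowering LDL uptake; positive z-scores mean more uptake, negative mean less.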 Unmarked entries are inactive."}
{"gene symbol": "DDN (dendrin)", "robust z-score, replicate 1": -1.51, "robust z-score, replicate 2": -1.26, "robust z-score, replicate 3": -1.69}
{"gene symbol": "PARP6 (poly(ADP-ribose) polymerase family member 6)", "robust z-score, replicate 1": -2.67, "robust z-score, replicate 2": -1.53, "robust z-score, replicate 3": -1.49}
{"gene symbol": "AGPAT1 (1-acylglycerol-3-phosphate O-acyltransferase 1)", "robust z-score, replicate 1": 0.192, "robust z-score, replicate 2": 0.204, "robust z-score, replicate 3": -0.347}
{"gene symbol": "NUGGC (nuclear GTPase, germinal center associated)", "robust z-score, replicate 1": -0.81, "robust z-score, replicate 2": -0.896, "robust z-score, replicate 3": -0.375}
{"gene symbol": "PANX2 (pannexin 2)", "robust z-score, replicate 1": -1.89, "robust z-score, replicate 2": -0.971, "robust z-score, replicate 3": -0.962}
{"gene symbol": "SAMD13 (sterile alpha motif domain containing 13)", "robust z-score, replicate 1": -0.722, "robust z-score, replicate 2": 0.224, "robust z-score, replicate 3": -0.769}
{"gene symbol": "DOCK9 (dedicator of cytokinesis 9)", "robust z-score, replicate 1": -0.921, "robust z-score, replicate 2": 1.14, "robust z-score, replicate 3": -1.53}
{"gene symbol": "TAFA2 (TAFA chemokine like family member 2)", "robust z-score, replicate 1": 0.734, "robust z-score, replicate 2": 0.559, "robust z-score, replicate 3": 0.684}
{"gene symbol": "SNED1 (sushi, nidogen and EGF like domains 1)", "robust z-score, replicate 1": 0.614, "robust z-score, replicate 2": 0.754, "robust z-score, replicate 3": 0.113}

2 entries from above in another layout:
gene symbol,"robust z-score, replicate 1","robust z-score, replicate 2","robust z-score, replicate 3"
DOCK9 (dedicator of cytokinesis 9),-0.921,1.14,-1.53
TAFA2 (TAFA chemokine like family member 2),0.734,0.559,0.684

Continued.
{"gene symbol": "KLHL34 (kelch like family member 34)", "robust z-score, replicate 1": 1.94, "robust z-score, replicate 2": 2.37, "robust z-score, replicate 3": 1.99}
{"gene symbol": "DYNC2I2 (dynein 2 intermediate chain 2)", "robust z-score, replicate 1": 0.807, "robust z-score, replicate 2": 1.82, "robust z-score, replicate 3": 2.19}
{"gene symbol": "LOC440204 (retired record)", "robust z-score, replicate 1": 0.985, "robust z-score, replicate 2": -0.171, "robust z-score, replicate 3": 0.231}
{"gene symbol": "RPP40 (ribonuclease P/MRP subunit p40)", "robust z-score, replicate 1": -0.427, "robust z-score, replicate 2": -0.703, "robust z-score, replicate 3": -0.756}
{"gene symbol": "TREM2 (triggering receptor expressed on myeloid cells 2)", "robust z-score, replicate 1": -0.774, "robust z-score, replicate 2": -1.11, "robust z-score, replicate 3": -0.701}
{"gene symbol": "HEG1 (heart development protein with EGF like domains 1)", "robust z-score, replicate 1": 0.224, "robust z-score, replicate 2": -0.276, "robust z-score, replicate 3": 0.441}
{"gene symbol": "TMED3 (transmembrane p24 trafficking protein 3)", "robust z-score, replicate 1": 1.49, "robust z-score, replicate 2": -0.0236, "robust z-score, replicate 3": 0.139}
